# Laboratory results taken from PubChem BioAssay AID504834 (National Center for Advancing Translational Sciences (NCATS), 2011).
# “And” between values parts separate entries of the source, which are not always exact repeats. Identical values can stand only once. Hit rate of the full screen: of about 320,000 compounds, about 22,000 (6.9%) were called active. The inconclusive results got no clear call from the source; some entries with a clear call stand among them for comparison. The call rests on the fitted dose curve; in most records, active means well fitted inhibition curve with a large enough effect; inconclusive means small, poorly fitted or top-dose-only effect, or another doubt; inactive means no such curve, though single readings can be large or run the other way. Potencies beside an inconclusive call are fits to weak or partial responses and may not hold up.
# Assay: Primary qHTS for delayed death inhibitors of the malarial parasite plastid, 96 hour incubation
# Conditions: P. falciparum luciferase reporter growth; series mostly up to 28.7 µM; activity change, negative = inhibition: at the top concentration
# Text: The goal of this screen is to discover new antimalarial compounds that act by inhibiting the development of the apicoplast in the malarial parasite Plasmodium falciparum. The biochemical processes that make this organelle essential for erythrocytic stage parasites are not well understood. However, antibiotics such as azithromycin and tetracycline, which target the apicoplast translational machinery, have a potent antimalarial effect.
# We have developed a cell-based assay that measures parasite growth based on the expression of an integrated copy of a firefly luciferase reporter. To detect small molecules that cause this "delayed death" phenotype, erythrocytes infected with the luciferase-expressing parasites were incubated with compounds for either one or two generations, corresponding to 48 and 96 hours, respectively. Compounds that inhibit parasite growth in the second generation, but not the first, should be enriched in antimalarials that target the apicoplast. Growth inhibition is detected by a decrease in luciferase activity.
# Assay Provider: David Fidock and Eric Ekland, Columbia University
# Keywords: NIH Roadmap, MLPCN, MLI, MLSMR, qHTS, NCGC, qHTS, malaria, luciferase, viability
# Four microliters of infected erythrocytes (2% hematocrit, 0.05% parasitemia final concentration) in culture medium were dispensed and the plates incubated for 96 hours at 37 C in 5% CO2. Two microliters of luciferase detection reagent was added and luminescence was detected by a ViewLux (PerkinElmer) reader.
# On the % scale 0 is the no-effect control and ±100 the full control effect; potency means the concentration at half of the fitted maximal effect.
Structure (SMILES),Potency,"activity change, negative = inhibition"
Cc1noc(C)c1CN1C(=O)NC2(CCCCCCC2)C1=O,"inconclusive: 13.1 µM [inhibitor, partial curve, poor fit]",–
Cc1cccc(-n2c(=S)[nH]c3nc4c(cc3c2=O)COC(C)(C)C4)c1,"inconclusive: 0.0928 µM [inhibitor, full curve, poor fit]",–
O=C(O)CSc1cc(C(=O)c2ccccc2O)cn2c(=O)c3c(-c4ccccc4)csc3nc12,"inconclusive: 16.5 µM [inhibitor, single point]",–
COc1ccc(OC)c(-c2csc(NC(=O)c3ccc4c(c3)OCO4)n2)c1,–,inactive: 0%
COc1ccc(NC(=O)COc2ccc(N(C)S(=O)(=O)c3ccc(Cl)cc3)cc2)cc1OC,"inconclusive: 11.7 µM [inhibitor, single point]",–
O=S(=O)([N-]c1nc2ccccc2nc1-n1cc[n+](Cc2ccccc2)c1)c1ccc(Br)cc1,"inconclusive: 1.17 µM [inhibitor, partial curve, poor fit]",–
Cc1ccc(S(=O)(=O)C2(C(=O)Nc3cccc(F)c3)CC2)cc1,–,inactive: -6.69%
COc1ccnc(Oc2ccc3ccccc3c2)c1C#N,–,inactive: 33.2%
CC(Oc1ccc(Cl)cc1Cl)C(=O)NCCCN1CCOCC1 (stereo not given),–,inactive: -3.54%
CN(C)CC(C)(C)CNC(=S)Nc1ccc(S(=O)(=O)N2CCOCC2)cc1,"inconclusive: 18.5 µM [inhibitor, single point]",–
CCNC(=S)NNc1nncc2ccccc12,"inconclusive: 13.1 µM [inhibitor, partial curve]",–
CSC1=NCCN1C(=O)c1ccco1,"inconclusive: 18.5 µM [inhibitor, single point]",–
CCOC(=O)CSc1cc(CS(=O)c2ccc(Cl)cc2)nc(-c2ccccc2)n1 (stereo not given),–,inactive: 0%
O=C(NCc1ccco1)c1ccc(Cl)c(S(=O)(=O)N2CCCC2)c1,active: 2.62 µM,–
COC(=O)c1sccc1S(=O)(=O)Nc1ccc(N2CCCCC2)cc1,"inconclusive: 18.5 µM [inhibitor, single point]",–
N#Cc1cnc(SCC(=O)Nc2ccccc2C(F)(F)F)nc1N,"inconclusive: 18.5 µM [inhibitor, single point]",–
Cc1cc(C)c(S(=O)(=O)N2CCN(C(=O)c3cc4ccccc4o3)CC2)c(C)c1,"inconclusive: 10.4 µM [inhibitor, single point]",–
O=C(c1ccc2c(c1)OCO2)C1CCCN(C(=O)NCc2ccccc2)C1 (stereo not given),"inconclusive: 8.28 µM [inhibitor, partial curve, poor fit]",–
NC(=O)c1cc(Br)cc(C2CCCCC2)c1O,"inconclusive: 9.28 µM [inhibitor, single point]",–
Cc1cnc(CNC(=O)CC2C(=O)NCCN2Cc2ccccc2C(F)(F)F)cn1 (stereo not given),"inconclusive: 18.5 µM [inhibitor, single point]",–
COc1ccccc1-c1nn(-c2ccccc2)cc1C(=O)NCC(c1ccco1)N1CCCC1 (stereo not given),active: 14.7 µM,–
COc1cccc(C2c3c(C)nn(-c4ccc([N+](=O)[O-])cc4)c3N=C3C(=O)Nc4ccccc4N32)c1 (stereo not given),"inconclusive: 0.415 µM [inhibitor, full curve, poor fit]",–
NCC(c1ccccc1)(c1ccccc1)c1ccccc1,"inconclusive: 16.5 µM [inhibitor, single point]",–
COC(=O)C1C(=O)N2CCCSC2=C(C#N)C1c1cccs1 (stereo not given),"inconclusive: 18.5 µM [inhibitor, single point]",–

Structure (SMILES),Potency,"activity change, negative = inhibition"
N#Cc1ccc(N2C(=O)[C@@H]3C(C(=O)c4ccc5ccccc5n4)=NN[C@@H]3C2=O)cc1,–,inactive: -14.7%
CC1Cc2ccccc2N1C(=S)NC1CCCC1 (stereo not given),"inconclusive: 0.165 µM [inhibitor, full curve, poor fit]",–
CC1CCN(S(=O)(=O)c2cc3c4c(c2)C(C)C(=O)N4CCC3)CC1 (stereo not given),"inconclusive: 18.5 µM [inhibitor, partial curve, poor fit]",–
N#C/C(C(=O)NCc1ccccc1)=C1/N=C(NC(=O)c2cccs2)c2ccccc21,–,inactive: -7.33%
O=C(NCc1ccco1)C(c1cccs1)N(C(=O)C1COc2ccccc2O1)c1cccc(O)c1 (stereo not given),"inconclusive: 11.7 µM [inhibitor, partial curve, poor fit]",–
CN(C(=O)c1cccc(Br)c1)C1CCS(=O)(=O)C1 (stereo not given),–,inactive: 10.5%
COc1ccc(N2CS(=O)CC2=O)cc1 (stereo not given),–,inactive: 34.1%
O=C(Cn1cnc2ccccc2c1=O)Nc1cccc(-c2nnc3n2CCCCC3)c1,"inconclusive: 5.22 µM [inhibitor, partial curve, poor fit]",–
CCC(C)c1ccccc1N1CC(C(=O)Nc2ccc(C)c(S(=O)(=O)N3CCOCC3)c2)CC1=O (stereo not given),"inconclusive: 4.65 µM [inhibitor, partial curve]",–
CCOC(=O)c1c(C)[nH]c(C(=O)CSc2nnc(CC(C)c3ccccc3)o2)c1C (stereo not given),"inconclusive: 13.1 µM [inhibitor, single point]",–
CC(C)c1ccccc1NC(=O)COC(=O)Cc1c[nH]c2ccccc12,–,inactive: 23.1%
C[C@@H](CN1C(=O)C(=O)NC[C@@H]1C)NC(=O)CC12CC3CC(CC(C3)C1)C2,–,inactive: 14.7%
CCOc1ccc(C(=O)C[n+]2ccccc2C)cc1,"inconclusive: 18.5 µM [inhibitor, single point]",–
COC(=O)C1=C(c2cccc3c2S(=O)(=O)c2ccccc2-3)C[C@@H]2CC[C@H]1N2C(=O)N1CCOCC1,active: 6.57 µM,–
O=C(Cc1ccc(Cl)cc1)N/N=C/c1ccncc1,–,inactive: -15.3%
O=C(Nc1ccc(Br)cc1)c1cccn1-c1ncc(C(F)(F)F)cc1Cl,"inconclusive: 18.5 µM [inhibitor, single point]",–
O=C(N1CCOCC1)N1CCN(S(=O)(=O)N2CCCCC2)CC1,active: 4.15 µM,–
COc1ccccc1-c1n[nH]c(=S)n1N,–,inactive: -8.72%
CN(C)Cc1nc2ccccc2c(=O)n1Cc1nc(-c2cccc([N+](=O)[O-])c2)cs1,"inconclusive: 6.57 µM [inhibitor, partial curve, poor fit]",–
COc1ccc2c(c1OC)C(=O)N(c1ccccc1)C2=O,–,inactive: -22.7%
CCOc1ccc(C(=O)NC(=S)Nc2ccc(NC(=O)c3ccco3)cc2)cc1[N+](=O)[O-],–,inactive: 17.1%
COc1ccc(C(CC(=O)NCc2ccco2)c2ccc(F)cc2)cc1 (stereo not given),"inconclusive: 1.17 µM [inhibitor, partial curve, poor fit]",–
COc1ccc(N(C)S(=O)(=O)c2cccc(C(=O)NCC(c3ccco3)N3CCCC3)c2)cc1 (stereo not given),"inconclusive: 3.7 µM [inhibitor, full curve]",–
Cc1ccc(C(O)P(=O)(OCCC(C)C)c2ccc(N(C)C)cc2)cc1 (stereo not given),"inconclusive: 5.86 µM [inhibitor, partial curve]",–

Structure (SMILES),Potency,"activity change, negative = inhibition"
Cc1cc(=O)[nH]c2ccccc12,–,inactive: 50.5%
C#CCOc1ccccc1CNc1ccccc1,–,inactive: -0.466%
CCOc1cc(C2NC(=O)NC(C)=C2C(=O)OCC2CCCCC2)ccc1O (stereo not given),–,inactive: 1.49%
S=C(Nc1ccccc1)N1N=C(c2cccs2)CC1c1cccs1 (stereo not given),–,inactive: 0%
Cc1cc(C)cc(NC(=O)CSc2ccc(-c3ccco3)nn2)c1,"inconclusive: 10.4 µM [inhibitor, single point]",–
C/C(=N\N=C1\NC(=O)C(Cc2ccccc2)S1)c1ccccc1 (stereo not given),"inconclusive: 11.7 µM [inhibitor, single point]",–
COc1ccccc1N=NC1C(=O)N(C(N)=S)N=C1C (stereo not given),–,inactive: -24.8%
Cc1nn(C(C)C(=O)Nc2ccc3c(c2)OCO3)c(C)c1[N+](=O)[O-] (stereo not given),–,inactive: 36.3%
CCOc1ccc2c(c1)C(C)=CC(C)(C)N2,"inactive and inconclusive: 11.7 µM [inhibitor, single point]",–
COc1ccc2sc(-c3ccccc3OC)c(C#CC(C)(C)O)c2c1,"inconclusive: 16.5 µM [inhibitor, single point]",–
COc1ccc(S(=O)(=O)N2CCCC2)c2ccccc12,"inconclusive: 18.5 µM [inhibitor, single point]",–
O=C(CN1C(=O)c2ccccc2C1=O)NCCc1c[nH]c2ccccc12,active: 5.22 µM,–
CCN(CCn1cccn1)C(=O)c1ccc(OC2CCN(C(=O)COC)CC2)cc1,"inconclusive: 11.7 µM [inhibitor, single point]",–
COc1cccc(NC(=O)CSc2nnc(NC(=O)C3CCC3)s2)c1,–,inactive: 2.34%
Cc1ccc(NC(=O)c2oc3ccc(S(=O)(=O)N4CCOCC4)cc3c2C)cc1C,"inconclusive: 7.38 µM [inhibitor, partial curve, poor fit]",–
CC(=O)Nc1sc2c(c1C(c1cccs1)N1CCOCC1)CCCC2 (stereo not given),"inconclusive: 6.57 µM [inhibitor, partial curve]",–
Cc1ccnc(NC(c2ccncc2)c2c(C)[nH]c3ccccc23)c1 (stereo not given),"inconclusive: 18.5 µM [inhibitor, single point]",–
O=C(C1CCN(S(=O)(=O)c2ccc(F)cc2)CC1)N1CCCC(C(F)(F)F)C1 (stereo not given),"inconclusive: 14.7 µM [inhibitor, partial curve, poor fit]",–
O=C(C1CCC(CNc2c(N3CCCCC3)c(=O)c2=O)CC1)N1CCCCC1 (stereo not given),"inconclusive: 9.28 µM [inhibitor, single point]",–
CS(=O)(=O)c1ccc(Sc2nc3ccccc3s2)c([N+](=O)[O-])c1,"inconclusive: 14.7 µM [inhibitor, single point]",–
O=C(C1CCN(c2nnc(N3CCCC3=O)s2)CC1)N1CCN(Cc2ccc3c(c2)OCO3)CC1,"inconclusive: 1.17 µM [inhibitor, partial curve, poor fit]",–
COc1ccc(N/C(=C/[N+](=O)[O-])SC)cc1,"inconclusive: 11.7 µM [inhibitor, single point]",–
